Test in all cases: log2 fold change, soluble protein after heating vs DMSO (PISA); higher = thermal stabilisation; K562 cells, 10 uM, 30 min; active = over 0.2 and 3.5 SD of the protein, either way, in both replicates (recomputed)
Compound in one experiment: Cc1ccc(NC(=O)c2ccc(CN3CC[C@H](N(C)C)C3)c(C(F)(F)F)c2)cc1Nc1nccc(-c2cncnc2)n1 [bafetinib]
In short, it runs like this:
(§1)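 K562 cells at 2×10^6 cells/mL were given 10 μM compound for 30 min. Aliquots then went through 3 min of heating across 48°C-58°C, were pooled, and were extracted in PBS with 0.5% NP-40 at 4°C, and the supernatant after 21,000xg for 90 min was quantified by TMTpro 16plex LC-MS/MS with channel sums equalised. Thermal stability relative to control samples, from duplicates, is given as log2 fold change.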

Protein sequences, listed by entry. Tags and fused reporters are not part of them. Lines headed by an entry give the natural chain unless they say otherwise; changes in a name come on top.
UniProt P78536: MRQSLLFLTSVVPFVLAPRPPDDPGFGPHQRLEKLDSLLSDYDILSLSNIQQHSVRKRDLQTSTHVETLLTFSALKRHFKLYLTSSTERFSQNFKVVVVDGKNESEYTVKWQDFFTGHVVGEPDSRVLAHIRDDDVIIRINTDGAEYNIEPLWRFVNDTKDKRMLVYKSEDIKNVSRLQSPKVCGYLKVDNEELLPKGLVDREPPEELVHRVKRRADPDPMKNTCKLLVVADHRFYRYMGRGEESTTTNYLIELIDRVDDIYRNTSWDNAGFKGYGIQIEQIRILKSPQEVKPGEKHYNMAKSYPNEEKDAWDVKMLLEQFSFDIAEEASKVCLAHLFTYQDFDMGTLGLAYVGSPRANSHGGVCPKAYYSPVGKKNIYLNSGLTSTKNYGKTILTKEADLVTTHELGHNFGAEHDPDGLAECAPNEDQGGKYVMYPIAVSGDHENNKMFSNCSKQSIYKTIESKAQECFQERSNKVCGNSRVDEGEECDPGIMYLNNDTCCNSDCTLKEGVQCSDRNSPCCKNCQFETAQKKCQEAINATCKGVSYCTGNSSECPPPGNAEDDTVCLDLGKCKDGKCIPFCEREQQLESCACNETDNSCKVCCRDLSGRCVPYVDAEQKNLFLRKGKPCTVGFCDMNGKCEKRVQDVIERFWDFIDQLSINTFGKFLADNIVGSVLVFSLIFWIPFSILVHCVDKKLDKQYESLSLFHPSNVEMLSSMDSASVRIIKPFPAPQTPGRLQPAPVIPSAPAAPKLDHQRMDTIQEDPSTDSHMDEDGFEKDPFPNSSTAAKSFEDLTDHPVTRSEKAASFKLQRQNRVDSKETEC
UniProt O15440: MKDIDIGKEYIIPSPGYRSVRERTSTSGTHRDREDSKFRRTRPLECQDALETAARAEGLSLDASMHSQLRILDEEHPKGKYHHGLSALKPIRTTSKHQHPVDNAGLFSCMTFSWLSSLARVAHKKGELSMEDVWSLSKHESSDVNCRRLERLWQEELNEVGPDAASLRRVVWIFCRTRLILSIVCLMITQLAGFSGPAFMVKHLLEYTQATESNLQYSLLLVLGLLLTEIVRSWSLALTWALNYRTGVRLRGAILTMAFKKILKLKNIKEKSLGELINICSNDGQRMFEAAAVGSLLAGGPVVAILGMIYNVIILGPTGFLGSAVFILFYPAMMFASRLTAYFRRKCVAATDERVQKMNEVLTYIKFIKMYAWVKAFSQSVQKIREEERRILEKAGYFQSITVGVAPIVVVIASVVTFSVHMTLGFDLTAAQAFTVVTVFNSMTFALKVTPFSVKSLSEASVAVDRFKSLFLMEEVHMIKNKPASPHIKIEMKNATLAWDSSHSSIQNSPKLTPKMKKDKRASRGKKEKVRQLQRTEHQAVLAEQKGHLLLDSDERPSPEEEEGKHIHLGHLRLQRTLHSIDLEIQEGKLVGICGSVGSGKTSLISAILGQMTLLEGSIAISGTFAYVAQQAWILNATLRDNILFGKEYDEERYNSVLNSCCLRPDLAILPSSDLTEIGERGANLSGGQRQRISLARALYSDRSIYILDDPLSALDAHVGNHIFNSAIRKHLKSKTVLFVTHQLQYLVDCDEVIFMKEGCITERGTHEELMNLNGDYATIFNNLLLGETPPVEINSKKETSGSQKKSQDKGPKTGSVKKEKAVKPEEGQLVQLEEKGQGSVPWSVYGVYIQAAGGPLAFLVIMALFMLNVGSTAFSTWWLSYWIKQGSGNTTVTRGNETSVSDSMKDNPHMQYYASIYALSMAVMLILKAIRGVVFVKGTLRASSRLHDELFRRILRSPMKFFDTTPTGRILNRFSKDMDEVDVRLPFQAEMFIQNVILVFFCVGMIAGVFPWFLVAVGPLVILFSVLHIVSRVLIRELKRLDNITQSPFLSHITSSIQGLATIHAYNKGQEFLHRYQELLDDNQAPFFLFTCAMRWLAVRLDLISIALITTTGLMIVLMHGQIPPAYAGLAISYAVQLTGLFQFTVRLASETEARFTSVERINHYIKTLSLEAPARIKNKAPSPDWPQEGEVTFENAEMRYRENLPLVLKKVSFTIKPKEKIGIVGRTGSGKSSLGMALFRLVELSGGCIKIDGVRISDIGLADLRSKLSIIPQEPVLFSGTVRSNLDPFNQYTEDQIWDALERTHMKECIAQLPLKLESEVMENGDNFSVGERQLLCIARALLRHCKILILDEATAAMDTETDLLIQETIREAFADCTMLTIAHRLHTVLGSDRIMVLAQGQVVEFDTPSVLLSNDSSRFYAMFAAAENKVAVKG
UniProt Q9NRG9: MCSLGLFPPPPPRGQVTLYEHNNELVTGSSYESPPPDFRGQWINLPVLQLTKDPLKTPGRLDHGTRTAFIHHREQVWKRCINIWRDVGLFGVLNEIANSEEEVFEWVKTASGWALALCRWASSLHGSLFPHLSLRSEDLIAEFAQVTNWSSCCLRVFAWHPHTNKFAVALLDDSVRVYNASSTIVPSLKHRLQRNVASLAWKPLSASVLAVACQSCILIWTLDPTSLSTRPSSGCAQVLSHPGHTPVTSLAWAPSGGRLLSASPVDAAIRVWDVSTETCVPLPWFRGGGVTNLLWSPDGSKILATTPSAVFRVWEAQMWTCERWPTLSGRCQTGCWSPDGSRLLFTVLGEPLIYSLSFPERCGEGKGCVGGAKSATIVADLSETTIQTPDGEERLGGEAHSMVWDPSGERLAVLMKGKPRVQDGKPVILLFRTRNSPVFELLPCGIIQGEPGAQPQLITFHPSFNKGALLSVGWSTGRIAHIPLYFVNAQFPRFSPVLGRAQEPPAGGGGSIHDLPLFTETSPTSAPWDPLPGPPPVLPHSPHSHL
UniProt Q4L235: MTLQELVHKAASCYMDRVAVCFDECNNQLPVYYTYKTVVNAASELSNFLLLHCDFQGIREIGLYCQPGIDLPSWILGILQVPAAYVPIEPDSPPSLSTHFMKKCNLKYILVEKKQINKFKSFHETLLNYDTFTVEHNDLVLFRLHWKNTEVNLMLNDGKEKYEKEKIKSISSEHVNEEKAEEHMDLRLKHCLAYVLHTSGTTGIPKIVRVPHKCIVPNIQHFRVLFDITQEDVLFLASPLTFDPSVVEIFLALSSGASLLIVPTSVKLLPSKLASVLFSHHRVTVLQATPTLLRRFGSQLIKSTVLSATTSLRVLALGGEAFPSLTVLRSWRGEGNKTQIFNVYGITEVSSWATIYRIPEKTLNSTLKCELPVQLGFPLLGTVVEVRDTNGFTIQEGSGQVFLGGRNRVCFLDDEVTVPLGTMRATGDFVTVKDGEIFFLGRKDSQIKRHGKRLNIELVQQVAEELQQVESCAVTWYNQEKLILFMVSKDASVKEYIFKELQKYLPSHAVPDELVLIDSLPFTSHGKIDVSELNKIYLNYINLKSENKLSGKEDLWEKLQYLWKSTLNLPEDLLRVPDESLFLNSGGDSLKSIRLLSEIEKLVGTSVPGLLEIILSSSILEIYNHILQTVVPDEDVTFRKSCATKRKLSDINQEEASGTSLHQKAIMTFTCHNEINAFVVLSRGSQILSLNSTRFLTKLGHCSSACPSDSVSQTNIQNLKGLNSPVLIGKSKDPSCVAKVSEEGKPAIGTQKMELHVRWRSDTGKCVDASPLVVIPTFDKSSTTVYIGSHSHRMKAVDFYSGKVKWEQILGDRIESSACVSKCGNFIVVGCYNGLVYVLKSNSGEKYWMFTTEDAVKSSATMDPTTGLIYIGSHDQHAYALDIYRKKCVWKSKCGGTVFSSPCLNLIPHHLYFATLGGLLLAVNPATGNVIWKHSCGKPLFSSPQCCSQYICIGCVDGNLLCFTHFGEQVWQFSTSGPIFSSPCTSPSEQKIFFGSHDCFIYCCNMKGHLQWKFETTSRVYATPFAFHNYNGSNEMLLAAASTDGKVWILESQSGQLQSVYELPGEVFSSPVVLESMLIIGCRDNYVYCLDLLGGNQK
UniProt Q5VST6: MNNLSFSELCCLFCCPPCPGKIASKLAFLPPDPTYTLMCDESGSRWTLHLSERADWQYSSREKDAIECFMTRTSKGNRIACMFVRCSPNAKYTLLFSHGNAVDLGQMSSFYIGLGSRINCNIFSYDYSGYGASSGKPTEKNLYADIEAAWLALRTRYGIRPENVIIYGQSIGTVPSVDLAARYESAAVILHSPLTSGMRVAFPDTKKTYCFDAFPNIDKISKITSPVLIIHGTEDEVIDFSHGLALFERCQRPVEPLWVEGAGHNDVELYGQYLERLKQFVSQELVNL
UniProt Q5JTZ9, whole entry, looked up: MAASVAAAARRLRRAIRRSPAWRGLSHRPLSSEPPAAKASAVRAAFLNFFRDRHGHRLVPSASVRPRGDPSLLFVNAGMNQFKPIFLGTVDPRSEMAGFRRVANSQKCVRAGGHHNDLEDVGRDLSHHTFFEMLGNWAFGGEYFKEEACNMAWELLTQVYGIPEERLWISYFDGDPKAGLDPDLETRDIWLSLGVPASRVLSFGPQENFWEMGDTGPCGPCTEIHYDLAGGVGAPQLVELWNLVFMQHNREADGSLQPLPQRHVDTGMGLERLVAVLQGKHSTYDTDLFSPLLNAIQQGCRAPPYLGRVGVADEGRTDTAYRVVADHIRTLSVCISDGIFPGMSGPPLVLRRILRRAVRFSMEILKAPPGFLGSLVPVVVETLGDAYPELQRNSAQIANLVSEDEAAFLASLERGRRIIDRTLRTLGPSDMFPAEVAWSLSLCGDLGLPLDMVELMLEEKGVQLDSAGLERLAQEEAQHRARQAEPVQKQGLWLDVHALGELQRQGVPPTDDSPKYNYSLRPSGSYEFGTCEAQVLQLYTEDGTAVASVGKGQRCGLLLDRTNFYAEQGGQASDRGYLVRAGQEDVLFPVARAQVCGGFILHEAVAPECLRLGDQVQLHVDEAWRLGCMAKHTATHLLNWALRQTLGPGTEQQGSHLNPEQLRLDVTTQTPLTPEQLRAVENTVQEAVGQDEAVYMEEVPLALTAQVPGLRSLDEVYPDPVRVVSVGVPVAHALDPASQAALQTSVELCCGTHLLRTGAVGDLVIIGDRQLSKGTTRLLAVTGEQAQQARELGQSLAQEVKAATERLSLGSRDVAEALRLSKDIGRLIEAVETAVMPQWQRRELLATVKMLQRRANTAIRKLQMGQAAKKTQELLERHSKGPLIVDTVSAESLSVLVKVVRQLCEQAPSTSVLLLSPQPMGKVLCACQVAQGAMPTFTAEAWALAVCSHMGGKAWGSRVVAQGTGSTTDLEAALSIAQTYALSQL
UniProt P16219: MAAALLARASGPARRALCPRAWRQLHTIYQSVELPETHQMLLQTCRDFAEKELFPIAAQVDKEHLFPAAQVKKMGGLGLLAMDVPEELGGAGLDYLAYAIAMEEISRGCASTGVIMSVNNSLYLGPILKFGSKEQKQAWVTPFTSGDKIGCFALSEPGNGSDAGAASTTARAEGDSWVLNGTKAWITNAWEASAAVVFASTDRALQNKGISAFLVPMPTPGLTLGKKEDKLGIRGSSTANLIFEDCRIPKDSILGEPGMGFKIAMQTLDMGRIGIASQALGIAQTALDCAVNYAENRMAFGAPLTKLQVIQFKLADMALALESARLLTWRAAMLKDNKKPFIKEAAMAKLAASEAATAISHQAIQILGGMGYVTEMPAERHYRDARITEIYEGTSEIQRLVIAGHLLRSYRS
UniProt P24666: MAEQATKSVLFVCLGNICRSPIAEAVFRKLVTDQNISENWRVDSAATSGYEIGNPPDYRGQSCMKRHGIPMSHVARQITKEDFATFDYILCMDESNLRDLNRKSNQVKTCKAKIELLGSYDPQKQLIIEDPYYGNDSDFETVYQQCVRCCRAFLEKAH
UniProt P00813: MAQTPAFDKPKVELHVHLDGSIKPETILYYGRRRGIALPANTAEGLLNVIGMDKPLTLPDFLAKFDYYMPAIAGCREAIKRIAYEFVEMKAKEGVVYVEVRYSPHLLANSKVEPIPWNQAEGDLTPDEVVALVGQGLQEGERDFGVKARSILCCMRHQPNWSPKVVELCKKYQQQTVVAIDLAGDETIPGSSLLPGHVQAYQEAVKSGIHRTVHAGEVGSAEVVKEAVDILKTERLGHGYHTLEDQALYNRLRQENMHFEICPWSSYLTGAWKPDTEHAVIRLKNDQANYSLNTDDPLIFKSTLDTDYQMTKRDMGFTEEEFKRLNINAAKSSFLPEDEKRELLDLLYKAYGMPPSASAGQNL
UniProt P09110: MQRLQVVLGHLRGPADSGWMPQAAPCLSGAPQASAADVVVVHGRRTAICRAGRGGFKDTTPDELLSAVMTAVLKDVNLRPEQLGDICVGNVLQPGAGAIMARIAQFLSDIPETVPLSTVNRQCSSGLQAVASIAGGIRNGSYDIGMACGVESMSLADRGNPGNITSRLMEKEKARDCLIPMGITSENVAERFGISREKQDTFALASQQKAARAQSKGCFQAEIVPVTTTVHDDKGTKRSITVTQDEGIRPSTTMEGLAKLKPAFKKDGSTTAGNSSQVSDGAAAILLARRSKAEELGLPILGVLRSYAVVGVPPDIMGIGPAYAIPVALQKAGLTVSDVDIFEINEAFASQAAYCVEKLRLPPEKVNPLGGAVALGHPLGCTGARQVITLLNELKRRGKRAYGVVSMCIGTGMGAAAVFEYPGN

Compound in experiment [1]: Cc1cccc(CC(=O)N2CCc3c2ccc(-c2cn(C)c4ncnc(N)c24)c3F)n1
In short, it runs like this:
as §1

Compound in a further experiment: Cc1cn(-c2cc(NC(=O)c3ccc(C)c(Nc4nccc(-c5cccnc5)n4)c3)cc(C(F)(F)F)c2)cn1 [nilotinib]
In a few lines:
as §1

Compound in experiment [2]: Cc1nc(Nc2n[nH]c3c2CN(C(=O)N[C@H](CN(C)C)c2ccccc2)C3(C)C)c2sccc2n1
In short, it runs like this:
as §1

Compound in the next experiment: Cc1nc(Nc2ncc(C(=O)Nc3c(C)cccc3Cl)s2)cc(N2CCN(CCO)CC2)n1 [dasatinib]
In a few lines: as §1

Compound in experiment [3]: Cc1ncc(-c2ccnc(Nc3ccc(S(C)(=O)=O)cc3)n2)n1C(C)C
In a few lines:
as §1

Compound in experiment [4]: Cn1cc(-c2ccc3c(c2)CCN3C(=O)Cc2cccc(C(F)(F)F)c2)c2c(N)ncnc21
In a few lines: as §1

Compound in experiment [5]: Cn1cc(-c2ccc3nnc(C(F)(F)c4ccc5ncccc5c4)n3n2)cn1
In short, it runs like this:
as §1

Compound in another experiment: Cn1cncc1[C@@](N)(c1ccc(Cl)cc1)c1ccc2c(c1)c(-c1cccc(Cl)c1)cc(=O)n2C [tipifarnib]
In short, it runs like this: as §1

Compound in the next experiment: FC(F)(F)c1ccc(/C=C/c2nc(COc3ccc(CCCCn4ccnn4)cc3)co2)cc1 [mubritinib]
In a few lines: as §1

This is one part of the list.

With ADAM17 (UniProt P78536), the log2 fold change in the experiment with bafetinib is inactive: -0.045; in [1], inactive: -0.023; in the experiment with nilotinib, inactive: 0.001; in experiment [2], inactive: 0.019; with dasatinib it was inactive: 0.01; in experiment [3], inactive: -0.045. Moreover, the log2 fold change in [4] is inactive: -0.014; in experiment [5], inactive: -0.014; with tipifarnib, inactive: 0.096; in the experiment with mubritinib it was inactive: -0.049.
For ABCC5 (UniProt O15440), the log2 fold change is inactive: -0.027 with bafetinib; inactive: 0.068 in experiment [1]; inactive: -0.21 with nilotinib; active: -0.219 in experiment [2]; inactive: -0.035 with dasatinib; inactive: -0.015 in [3]. Also, the log2 fold change in experiment [4] is inactive: 0.017; in experiment [5], inactive: 0.053; with tipifarnib, inactive: -0.009; with mubritinib, inactive: 0.124.
With AAAS (UniProt Q9NRG9), the log2 fold change with bafetinib was inactive: -0.043; in experiment [1] it was inactive: 0.023; with nilotinib it was inactive: 0.04; in experiment [2], inactive: -0.011; with dasatinib it was inactive: -0.029; in experiment [3], inactive: -0.027. The log2 fold change in experiment [4] is inactive: 0.046; in experiment [5], inactive: -0.018; in the experiment with tipifarnib it was inactive: -0.003; with mubritinib, inactive: 0.017.
With AASDH (UniProt Q4L235), the log2 fold change in the experiment with bafetinib is inactive: -0.065; in [1] it was inactive: -0.008; with nilotinib it was inactive: -0.079; in [2], inactive: -0.149; with dasatinib it was inactive: 0.063; in experiment [3] it was inactive: 0.173. Also, the log2 fold change was inactive: 0.045 in [4], inactive: 0.024 in experiment [5], inactive: 0.058 with tipifarnib and inactive: 0.144 with mubritinib.
For the target ABHD17B (UniProt Q5VST6), the log2 fold change was inactive: 0.041 with bafetinib; inactive: -0.012 in [1]; inactive: 0.198 with nilotinib; inactive: 0.01 in [2]; inactive: -0.027 in the experiment with dasatinib; inactive: -0.086 in [3]. Besides, the log2 fold change in [4] is inactive: 0.052; in [5] it was inactive: 0; with tipifarnib it was inactive: 0.024; with mubritinib, inactive: 0.021.
For AARS2 (UniProt Q5JTZ9), the log2 fold change in the experiment with bafetinib is inactive: -0.07; in [1] it was inactive: 0.011; in the experiment with nilotinib it was inactive: -0.085; in [2] it was inactive: -0.047; with dasatinib, inactive: -0.184; in experiment [3], inactive: -0.036. Also, the log2 fold change in experiment [4] was inactive: 0.052; in experiment [5], inactive: 0.05; with tipifarnib, inactive: -0.063; with mubritinib it was inactive: -0.143.
As to ACSF3 (UniProt Q4G176), the log2 fold change was inactive: -0.13 in the experiment with bafetinib; inactive: -0.105 in experiment [1]; inactive: 0.084 with nilotinib; inactive: 0.135 in [2]; inactive: -0.073 with dasatinib; inactive: 0.022 in [3]. The log2 fold change is inactive: -0.278 in experiment [4], inactive: -0.02 in [5], inactive: 0.062 with tipifarnib and active: -0.433 with mubritinib.
As to ACADS (UniProt P16219), the log2 fold change with bafetinib is inactive: -0.025; in [1], inactive: -0.015; in the experiment with nilotinib, inactive: 0.076; in experiment [2], inactive: 0.016; with dasatinib, inactive: -0.091; in experiment [3] it was inactive: -0.009. The log2 fold change was inactive: 0.015 in [4], inactive: -0.024 in experiment [5], inactive: 0.016 with tipifarnib and inactive: -0.037 with mubritinib.
Consider ACTL8 (UniProt Q9H568), for which the log2 fold change is inactive: -0.078 with bafetinib; inactive: -0.03 in experiment [1]; inactive: -0.054 in the experiment with nilotinib; inactive: 0.003 in [2]; inactive: 0.021 in the experiment with dasatinib; inactive: 0.068 in experiment [3]. Also, the log2 fold change was inactive: -0.018 in experiment [4], inactive: 0.015 in experiment [5], inactive: 0.089 with tipifarnib and inactive: 0 with mubritinib.
For ACP1 isoform 2 (UniProt P24666), the log2 fold change is inactive: 0.037 in the experiment with bafetinib; inactive: 0.036 in experiment [1]; inactive: 0.039 with nilotinib; inactive: -0.063 in experiment [2]; inactive: -0.126 with dasatinib; inactive: -0.049 in [3]. Besides, the log2 fold change was inactive: -0.044 in experiment [4], inactive: 0.022 in [5], inactive: -0.146 in the experiment with tipifarnib and inactive: 0.042 in the experiment with mubritinib.
Regarding ACACB (UniProt O00763), the log2 fold change with bafetinib is inactive: 0.145; in experiment [1], inactive: -0.021; with nilotinib it was inactive: -0.109; in [2], inactive: -0.251; in the experiment with dasatinib, inactive: -0.03; in [3] it was inactive: -0.026. Further, the log2 fold change in [4] was inactive: -0.09; in experiment [5], inactive: -0.059; with tipifarnib, inactive: -0.14; with mubritinib, inactive: -0.147.
On to ADA (UniProt P00813), for which the log2 fold change with bafetinib was inactive: -0.055; in experiment [1], inactive: -0.123; with nilotinib it was inactive: 0.047; in experiment [2] it was inactive: -0.016; with dasatinib it was inactive: -0.028; in experiment [3], inactive: 0.012. In addition, the log2 fold change in experiment [4] was inactive: 0.059; in experiment [5], inactive: 0.092; in the experiment with tipifarnib, inactive: 0.051; with mubritinib it was inactive: 0.077.
Regarding ADAM15 (UniProt Q13444), the log2 fold change in the experiment with bafetinib is inactive: 0.067; in [1], inactive: 0.003; with nilotinib, inactive: -0.11; in [2], inactive: -0.043; with dasatinib it was inactive: -0.009; in experiment [3], inactive: 0.079. Also, the figures for the log2 fold change (in experiment [4]; in experiment [5]; with tipifarnib) were active: -0.355, inactive: 0.018 and inactive: -0.053, respectively.
As to ACAA1 (UniProt P09110), the log2 fold change with bafetinib is inactive: -0.021; in experiment [1] it was inactive: 0.001; with nilotinib it was inactive: 0.021; in experiment [2], inactive: 0.003; with dasatinib it was inactive: 0.019; in [3] it was inactive: -0.025. Further, the log2 fold change in experiment [4] is inactive: 0.02; in [5] it was inactive: -0.008; with tipifarnib, inactive: -0.002; in the experiment with mubritinib, inactive: 0.043.
Consider ABCA8 isoform 3 (UniProt O94911), for which the log2 fold change in the experiment with bafetinib is inactive: -0.093.
As for ACY1 (UniProt Q03154), the log2 fold change with bafetinib was inactive: -0.003; in experiment [1], inactive: -0.019; with nilotinib it was inactive: 0.032; in experiment [2] it was inactive: 0.009; with dasatinib it was inactive: 0.018; in experiment [3] it was inactive: 0.001. Further, the log2 fold change is inactive: 0.044 in [4], inactive: 0.008 in experiment [5], inactive: -0.017 with tipifarnib and inactive: 0.044 in the experiment with mubritinib.
